Laboratory results published in publication PMC6737913.
No constants are given. Whether binding was seen depends on the method and setting. In cells and extracts the contact can be indirect. Some binding calls cover weakened binding; strength is not graded here. Where a sequence is shown, tags or fusion partners need not be part of it.

Protein sequences, listed by entry. Tags and fused reporters are not part of them.
UniProt Q63357: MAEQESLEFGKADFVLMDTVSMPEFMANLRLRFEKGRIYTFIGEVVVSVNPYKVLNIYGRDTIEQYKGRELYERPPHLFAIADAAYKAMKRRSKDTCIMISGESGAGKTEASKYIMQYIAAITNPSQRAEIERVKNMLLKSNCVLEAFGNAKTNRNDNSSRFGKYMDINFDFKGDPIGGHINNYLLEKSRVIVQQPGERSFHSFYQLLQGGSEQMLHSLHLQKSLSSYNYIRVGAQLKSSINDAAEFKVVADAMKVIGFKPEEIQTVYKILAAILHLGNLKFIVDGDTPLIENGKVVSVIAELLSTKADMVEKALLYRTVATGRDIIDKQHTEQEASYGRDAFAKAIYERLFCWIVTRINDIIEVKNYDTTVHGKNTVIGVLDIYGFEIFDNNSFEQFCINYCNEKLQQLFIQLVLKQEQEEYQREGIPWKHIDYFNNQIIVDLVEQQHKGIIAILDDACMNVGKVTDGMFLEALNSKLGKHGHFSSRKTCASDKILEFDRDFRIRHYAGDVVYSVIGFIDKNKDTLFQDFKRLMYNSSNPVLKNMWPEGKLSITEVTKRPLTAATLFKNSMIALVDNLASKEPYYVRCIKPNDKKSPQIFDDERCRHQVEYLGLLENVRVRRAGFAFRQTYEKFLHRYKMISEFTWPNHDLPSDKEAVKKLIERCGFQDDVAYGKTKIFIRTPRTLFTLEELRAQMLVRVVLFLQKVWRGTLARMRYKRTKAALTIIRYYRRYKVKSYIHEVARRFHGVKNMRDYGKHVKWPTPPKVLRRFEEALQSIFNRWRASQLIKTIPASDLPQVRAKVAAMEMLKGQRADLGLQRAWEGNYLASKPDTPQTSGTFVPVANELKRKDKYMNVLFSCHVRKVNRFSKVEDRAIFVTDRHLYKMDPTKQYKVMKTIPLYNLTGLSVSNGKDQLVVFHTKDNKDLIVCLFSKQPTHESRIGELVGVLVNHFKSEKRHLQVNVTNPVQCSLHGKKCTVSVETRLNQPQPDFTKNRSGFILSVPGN
UniProt Q9Y4I1: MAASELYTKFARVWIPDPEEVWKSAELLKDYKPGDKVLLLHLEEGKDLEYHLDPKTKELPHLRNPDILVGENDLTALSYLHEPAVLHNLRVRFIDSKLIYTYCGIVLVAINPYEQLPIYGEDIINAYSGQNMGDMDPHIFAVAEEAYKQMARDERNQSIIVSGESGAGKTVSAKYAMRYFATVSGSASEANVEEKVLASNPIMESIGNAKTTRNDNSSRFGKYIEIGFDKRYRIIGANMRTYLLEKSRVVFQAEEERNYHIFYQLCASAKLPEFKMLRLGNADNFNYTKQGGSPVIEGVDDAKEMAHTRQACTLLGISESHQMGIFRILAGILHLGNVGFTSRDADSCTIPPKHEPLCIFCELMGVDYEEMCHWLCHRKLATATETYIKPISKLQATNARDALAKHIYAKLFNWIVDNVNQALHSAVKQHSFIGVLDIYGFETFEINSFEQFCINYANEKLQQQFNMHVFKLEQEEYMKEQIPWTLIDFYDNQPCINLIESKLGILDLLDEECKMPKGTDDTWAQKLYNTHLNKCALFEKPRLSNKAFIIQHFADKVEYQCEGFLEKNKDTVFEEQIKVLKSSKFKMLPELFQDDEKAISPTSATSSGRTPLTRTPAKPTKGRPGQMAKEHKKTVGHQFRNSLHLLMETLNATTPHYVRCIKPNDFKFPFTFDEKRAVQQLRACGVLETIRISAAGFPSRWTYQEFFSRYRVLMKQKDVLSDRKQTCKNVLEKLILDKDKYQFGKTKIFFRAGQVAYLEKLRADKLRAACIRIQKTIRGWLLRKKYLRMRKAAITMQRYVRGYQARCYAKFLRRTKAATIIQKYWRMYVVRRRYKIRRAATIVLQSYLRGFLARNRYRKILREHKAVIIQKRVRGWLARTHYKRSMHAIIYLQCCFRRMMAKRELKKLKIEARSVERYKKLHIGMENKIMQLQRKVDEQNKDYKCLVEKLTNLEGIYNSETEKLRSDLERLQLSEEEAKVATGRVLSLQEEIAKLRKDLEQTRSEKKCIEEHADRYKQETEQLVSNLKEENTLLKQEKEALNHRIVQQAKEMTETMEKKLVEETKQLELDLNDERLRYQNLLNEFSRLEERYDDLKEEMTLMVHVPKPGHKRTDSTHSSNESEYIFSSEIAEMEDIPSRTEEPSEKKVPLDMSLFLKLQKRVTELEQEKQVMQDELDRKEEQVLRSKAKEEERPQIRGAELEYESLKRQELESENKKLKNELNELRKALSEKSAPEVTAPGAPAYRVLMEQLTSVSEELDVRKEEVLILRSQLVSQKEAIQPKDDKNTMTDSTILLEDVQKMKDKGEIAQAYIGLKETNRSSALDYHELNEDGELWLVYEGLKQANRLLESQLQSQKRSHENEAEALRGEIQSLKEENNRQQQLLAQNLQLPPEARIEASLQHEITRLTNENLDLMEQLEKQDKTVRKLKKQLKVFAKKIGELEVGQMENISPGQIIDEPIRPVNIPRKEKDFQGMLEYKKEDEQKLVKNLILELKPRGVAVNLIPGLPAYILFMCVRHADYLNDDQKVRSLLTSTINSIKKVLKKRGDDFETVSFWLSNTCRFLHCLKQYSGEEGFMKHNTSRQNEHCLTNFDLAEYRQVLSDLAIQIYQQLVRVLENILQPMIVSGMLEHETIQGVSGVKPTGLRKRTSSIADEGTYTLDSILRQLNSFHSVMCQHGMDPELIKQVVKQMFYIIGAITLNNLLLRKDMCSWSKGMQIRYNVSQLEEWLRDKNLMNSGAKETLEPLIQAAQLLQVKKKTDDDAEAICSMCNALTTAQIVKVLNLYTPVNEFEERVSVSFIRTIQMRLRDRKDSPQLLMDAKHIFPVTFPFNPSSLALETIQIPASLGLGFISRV
UniProt Q9QYF3: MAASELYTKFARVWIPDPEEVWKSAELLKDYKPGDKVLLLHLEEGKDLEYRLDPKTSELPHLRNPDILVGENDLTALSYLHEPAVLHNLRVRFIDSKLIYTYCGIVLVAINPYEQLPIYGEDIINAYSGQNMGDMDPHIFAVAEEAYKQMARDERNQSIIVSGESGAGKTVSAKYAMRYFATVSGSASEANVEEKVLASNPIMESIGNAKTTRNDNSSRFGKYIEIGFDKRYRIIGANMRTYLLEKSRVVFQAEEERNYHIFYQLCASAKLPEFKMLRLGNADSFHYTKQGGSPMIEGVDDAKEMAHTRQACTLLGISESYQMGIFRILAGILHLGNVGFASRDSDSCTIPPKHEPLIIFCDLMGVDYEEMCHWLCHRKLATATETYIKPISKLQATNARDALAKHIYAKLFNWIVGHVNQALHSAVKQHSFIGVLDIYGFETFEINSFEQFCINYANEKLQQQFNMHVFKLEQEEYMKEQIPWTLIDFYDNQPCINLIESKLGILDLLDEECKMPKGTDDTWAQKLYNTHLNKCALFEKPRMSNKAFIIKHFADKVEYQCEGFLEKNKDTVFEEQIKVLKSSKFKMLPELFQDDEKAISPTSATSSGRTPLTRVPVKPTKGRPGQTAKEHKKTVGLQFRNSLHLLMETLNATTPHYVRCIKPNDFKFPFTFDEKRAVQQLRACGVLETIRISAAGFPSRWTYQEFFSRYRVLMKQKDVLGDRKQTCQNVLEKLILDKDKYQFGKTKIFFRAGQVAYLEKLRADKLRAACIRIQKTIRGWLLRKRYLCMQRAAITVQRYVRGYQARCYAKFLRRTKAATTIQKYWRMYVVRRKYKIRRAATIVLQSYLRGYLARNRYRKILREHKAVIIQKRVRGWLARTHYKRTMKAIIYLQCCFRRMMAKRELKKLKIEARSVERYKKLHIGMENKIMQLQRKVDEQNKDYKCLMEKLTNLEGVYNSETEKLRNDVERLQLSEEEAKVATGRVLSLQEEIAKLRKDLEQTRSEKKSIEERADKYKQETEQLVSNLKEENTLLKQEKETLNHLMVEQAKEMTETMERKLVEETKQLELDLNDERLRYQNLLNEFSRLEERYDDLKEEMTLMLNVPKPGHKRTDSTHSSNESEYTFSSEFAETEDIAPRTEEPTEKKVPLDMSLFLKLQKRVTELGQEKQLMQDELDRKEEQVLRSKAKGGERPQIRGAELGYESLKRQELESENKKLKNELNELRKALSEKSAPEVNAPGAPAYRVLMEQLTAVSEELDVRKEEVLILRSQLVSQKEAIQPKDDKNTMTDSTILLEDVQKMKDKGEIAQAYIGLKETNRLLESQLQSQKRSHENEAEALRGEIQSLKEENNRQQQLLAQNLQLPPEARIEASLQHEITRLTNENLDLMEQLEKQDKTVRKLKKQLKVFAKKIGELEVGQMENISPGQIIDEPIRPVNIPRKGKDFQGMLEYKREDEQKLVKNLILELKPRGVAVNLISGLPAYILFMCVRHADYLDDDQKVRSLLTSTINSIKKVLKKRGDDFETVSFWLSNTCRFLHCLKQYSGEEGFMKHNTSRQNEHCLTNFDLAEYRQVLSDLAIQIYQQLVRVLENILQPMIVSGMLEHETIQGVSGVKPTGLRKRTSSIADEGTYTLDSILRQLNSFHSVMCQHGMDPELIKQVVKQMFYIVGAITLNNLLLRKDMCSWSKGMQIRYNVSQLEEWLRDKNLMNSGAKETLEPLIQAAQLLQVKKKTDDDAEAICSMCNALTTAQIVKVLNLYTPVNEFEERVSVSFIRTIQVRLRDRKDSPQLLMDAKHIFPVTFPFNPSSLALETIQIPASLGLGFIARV
UniProt P70569: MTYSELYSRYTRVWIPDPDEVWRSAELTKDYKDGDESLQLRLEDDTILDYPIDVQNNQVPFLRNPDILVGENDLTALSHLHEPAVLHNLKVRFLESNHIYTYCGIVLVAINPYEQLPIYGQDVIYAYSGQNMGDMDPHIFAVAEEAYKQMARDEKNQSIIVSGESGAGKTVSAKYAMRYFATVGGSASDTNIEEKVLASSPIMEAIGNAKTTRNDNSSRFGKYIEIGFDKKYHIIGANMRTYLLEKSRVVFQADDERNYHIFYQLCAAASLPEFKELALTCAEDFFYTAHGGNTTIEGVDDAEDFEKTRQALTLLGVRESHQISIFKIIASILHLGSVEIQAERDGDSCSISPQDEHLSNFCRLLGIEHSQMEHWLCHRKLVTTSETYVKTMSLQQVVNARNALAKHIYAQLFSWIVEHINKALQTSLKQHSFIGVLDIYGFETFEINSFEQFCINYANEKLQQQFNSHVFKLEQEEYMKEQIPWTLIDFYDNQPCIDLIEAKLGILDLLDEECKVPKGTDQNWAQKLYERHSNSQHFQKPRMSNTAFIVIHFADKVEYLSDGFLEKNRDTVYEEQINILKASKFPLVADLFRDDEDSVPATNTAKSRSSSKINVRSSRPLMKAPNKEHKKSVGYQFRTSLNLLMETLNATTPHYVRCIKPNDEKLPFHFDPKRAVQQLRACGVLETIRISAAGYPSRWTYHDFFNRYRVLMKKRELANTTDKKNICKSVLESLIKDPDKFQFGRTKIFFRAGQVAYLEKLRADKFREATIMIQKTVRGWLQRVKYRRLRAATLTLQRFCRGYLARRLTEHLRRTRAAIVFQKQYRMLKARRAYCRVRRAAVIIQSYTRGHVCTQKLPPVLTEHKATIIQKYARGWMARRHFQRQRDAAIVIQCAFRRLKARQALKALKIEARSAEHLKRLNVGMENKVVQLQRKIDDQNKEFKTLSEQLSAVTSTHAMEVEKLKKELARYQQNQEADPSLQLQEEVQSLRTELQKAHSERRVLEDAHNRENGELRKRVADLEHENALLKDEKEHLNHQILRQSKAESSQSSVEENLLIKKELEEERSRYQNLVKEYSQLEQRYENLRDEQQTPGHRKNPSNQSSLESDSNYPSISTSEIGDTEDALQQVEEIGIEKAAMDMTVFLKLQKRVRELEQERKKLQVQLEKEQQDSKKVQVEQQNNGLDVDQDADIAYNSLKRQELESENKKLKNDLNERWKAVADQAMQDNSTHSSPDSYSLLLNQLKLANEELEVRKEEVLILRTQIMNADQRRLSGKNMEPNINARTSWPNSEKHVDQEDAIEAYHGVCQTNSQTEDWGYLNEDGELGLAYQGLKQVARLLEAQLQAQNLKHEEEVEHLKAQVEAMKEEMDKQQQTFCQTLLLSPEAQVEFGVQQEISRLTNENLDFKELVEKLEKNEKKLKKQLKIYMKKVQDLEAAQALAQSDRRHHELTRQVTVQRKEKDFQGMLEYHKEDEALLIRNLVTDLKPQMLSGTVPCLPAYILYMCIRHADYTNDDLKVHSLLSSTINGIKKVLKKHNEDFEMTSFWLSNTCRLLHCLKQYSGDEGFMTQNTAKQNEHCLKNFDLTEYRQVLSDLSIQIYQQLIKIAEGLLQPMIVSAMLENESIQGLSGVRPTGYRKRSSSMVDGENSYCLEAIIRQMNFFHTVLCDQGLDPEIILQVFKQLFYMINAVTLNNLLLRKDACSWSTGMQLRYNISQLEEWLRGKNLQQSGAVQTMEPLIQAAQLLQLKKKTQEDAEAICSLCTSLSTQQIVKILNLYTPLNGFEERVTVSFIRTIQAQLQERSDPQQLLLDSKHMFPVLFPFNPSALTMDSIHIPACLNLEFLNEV

Key:
[1] = biological target: T1, bio-GFP–synaptopodin (biotinylated GFP–synaptopodin) (mouse) (UniProt Q8CC35); experiment: pull-down; bio-GFP–synaptopodin (or bio-GFP control) from HEK293T lysate held on Streptavidin Dynabeads, washed (100/500 mM KCl), incubated with cleared rat brain lysate for 1 h at 4°C, washed five times; western blot of individual interactors; only the target purified
T1 sequence (chain, biotin (biotinylated; co-expressed with HA–BirA)): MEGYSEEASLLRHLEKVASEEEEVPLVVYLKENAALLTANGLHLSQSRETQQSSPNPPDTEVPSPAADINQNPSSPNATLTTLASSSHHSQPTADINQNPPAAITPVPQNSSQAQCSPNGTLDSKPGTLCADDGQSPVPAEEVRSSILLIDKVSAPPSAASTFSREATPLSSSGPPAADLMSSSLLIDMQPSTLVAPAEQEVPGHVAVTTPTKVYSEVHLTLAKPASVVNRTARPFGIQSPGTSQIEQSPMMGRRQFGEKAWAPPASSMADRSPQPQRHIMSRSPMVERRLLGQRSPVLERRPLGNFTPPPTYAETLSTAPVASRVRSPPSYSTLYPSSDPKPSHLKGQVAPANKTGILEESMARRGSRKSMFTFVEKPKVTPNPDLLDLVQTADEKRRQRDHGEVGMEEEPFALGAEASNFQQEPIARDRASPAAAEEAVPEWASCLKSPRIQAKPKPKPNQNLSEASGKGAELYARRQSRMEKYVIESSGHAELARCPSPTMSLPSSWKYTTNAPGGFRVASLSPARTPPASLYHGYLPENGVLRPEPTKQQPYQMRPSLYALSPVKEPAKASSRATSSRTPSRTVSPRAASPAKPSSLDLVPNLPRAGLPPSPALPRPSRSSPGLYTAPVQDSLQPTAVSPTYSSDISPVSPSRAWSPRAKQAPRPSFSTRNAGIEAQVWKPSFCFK

[2] = biological target: T1, bio-GFP–synaptopodin (biotinylated GFP–synaptopodin) (mouse); experiment: pull-down; bio-GFP–synaptopodin-coupled Streptavidin beads before incubation in brain lysate (Beads w/o): bound overnight at 4°C from HEK293T lysate (20 mM Tris-HCl pH 8, 150 mM NaCl, 1% Triton X-100, 5 mM MgCl2), washed with 100 mM and 500 mM KCl buffers; western blot for myosin Va and actin

myosin Id (endogenous, rat brain) (from UniProt Q63357 1-1006)
binding [1]: binds

myosin Va (endogenous, HEK293 cells) (from UniProt Q9Y4I1 1-1855)
binding [2]: no binding

myosin Va (endogenous, rat brain) (from UniProt Q9QYF3 1-1828)
binding [1]: binds

myosin Vb (endogenous, rat brain) (from UniProt P70569 1-1846)
binding [1]: binds
